Step yield data for 4 substances are collected here from patent publication US3953417 (dated 1976).

A short description of the series: general procedure: solution-phase peptide synthesis; OTcp active ester with HOBt and N-ethylmorpholine; HOBt/dicyclohexylcarbodiimide. Particulars: HCl.

“HCl.H-Glu(OBu^t)-Asp(OBu^t)-Glu(OBu^t)-Asp(OBu^t)-OBu^t” came in with a step yield (late stage modification step) of 97.5%.
For the substance “HCl.H-Glu(OBu^t)-Glu(OBu^t)-Glu(OBu^t)-Glu(OBu^t)-OBu^t”, the step yield (late stage modification step) was 98%.
In the case of “Z-Glu(OBu^t)-Asp(OBu^t)-Glu(OBu^t)-Asp(OBu^t)-OBu^t”, the step yield (coupling step) turned out to be 80%.
Same read-out and setting: the value for “Z-Glu(OBu^t)-Glu(OBu^t)-Glu(OBu^t)-Glu(OBu^t)-OBu^t” was 86%.
